Measured values: PubChem BioAssay AID720504 (National Center for Advancing Translational Sciences (NCATS), 2013)
Among all 360,000 compounds or so, about 10,000 (2.8%) were called active. Inconclusive means that the source gave no clear call. Such entries were picked first, then a sample of the others. The call rests on the fitted dose curve; in most records, active means well fitted inhibition curve with a large enough effect; inconclusive means small, poorly fitted or top-dose-only effect; inactive means flat fitted curve, though single readings scatter. Where the call is inconclusive, the potency comes from a doubtful curve fit.

Amino acid sequences for entries named in this document (tags omitted).
UniProt P53350, whole entry, looked up: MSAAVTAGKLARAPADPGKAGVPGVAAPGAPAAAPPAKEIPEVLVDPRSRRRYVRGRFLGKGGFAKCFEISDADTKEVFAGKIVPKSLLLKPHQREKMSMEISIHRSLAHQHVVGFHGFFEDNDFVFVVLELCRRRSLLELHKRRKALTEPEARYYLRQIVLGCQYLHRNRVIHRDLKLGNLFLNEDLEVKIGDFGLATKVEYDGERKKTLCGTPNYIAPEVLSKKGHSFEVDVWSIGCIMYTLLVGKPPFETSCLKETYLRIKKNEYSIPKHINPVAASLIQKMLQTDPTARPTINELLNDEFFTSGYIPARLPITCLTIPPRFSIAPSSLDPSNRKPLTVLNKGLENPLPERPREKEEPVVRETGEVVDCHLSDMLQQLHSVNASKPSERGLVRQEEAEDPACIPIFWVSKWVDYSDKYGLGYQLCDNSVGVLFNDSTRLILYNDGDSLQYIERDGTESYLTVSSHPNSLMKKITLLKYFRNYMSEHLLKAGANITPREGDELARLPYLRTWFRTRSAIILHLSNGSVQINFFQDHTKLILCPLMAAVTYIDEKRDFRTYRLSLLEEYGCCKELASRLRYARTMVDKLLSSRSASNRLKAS

target: Serine/threonine-protein kinase PLK1 (Homo sapiens) (UniProt P53350); assay: qHTS for Inhibitors of PLK1-PDB (polo-like kinase 1 - polo-box domain): Primary Screen; conditions: Plk1 PBD binding of FITC phosphopeptide, fluorescence polarization; further: nearly all actives have a fitted effect of over 65% in size; on max response, negative = inhibition: series mostly up to about 57 µM
On the % scale 0 is the no-effect control and ±100 the full control effect; potency means the concentration at half of the fitted maximal effect.

| Structure (SMILES) | Potency | max response, negative = inhibition |
| --- | --- | --- |
| N#Cc1c(NC(=O)c2cnccn2)sc2c1CCCC2 | active: 26.7 µM |  |
| O=C(NCCCc1ccccc1)C1CC1 |  | inactive: 3.82% |
| COc1ccc(OCC(O)CNCCOc2ccccc2OC)c(C(C)(C)C)c1 (stereo unspecified) | inconclusive: 15 µM [inhibitor, partial curve] |  |
| O=C1COc2ccc(C(=O)CSc3ccc(Br)cc3)cc2N1 | inconclusive: 21.2 µM [inhibitor, partial curve] |  |
| CCOc1ccc(/C=N/NC(=O)c2ccc(CSc3nc4ccccc4[nH]3)cc2)cc1 | inconclusive: 18.9 µM [inhibitor, partial curve] |  |
| Cc1cc(N2CCN(C(c3ccccc3)c3ccccc3)CC2)n2ncnc2n1 | inconclusive: 29.9 µM [inhibitor, partial curve, poor fit] |  |
| O=[N+]([O-])c1ccccc1S(=O)(=O)N1CCN(CC2CC3C=CC2C3)CC1 (stereo unspecified) |  | inactive: 2.55% |
| CC(=O)Nc1sc(C)c(C)c1C(=O)OC(C)C | active: 26.7 µM |  |
| COc1ccccc1NC(=O)c1ccc(SCC(=O)NCc2ccccc2Cl)c([N+](=O)[O-])c1 |  | inactive: -4.49% |
| CCc1ccc(OC2=NS(=O)(=O)c3ccccc32)cc1 | active: 11.9 µM |  |
| CC(C)[C@H](NC(=O)OC(C)(C)C)c1cc(C(=O)N2CCOCC2)c(N)s1 | inconclusive: 21.2 µM [inhibitor, single point] |  |
| C=CCNC(=O)c1ccsc1N | inconclusive: 23.8 µM [inhibitor, partial curve] |  |
| CSc1ccc(CN(C)CC(=O)NC(C)c2ccccc2)cc1 (stereo unspecified) | inconclusive: 37.7 µM [inhibitor, single point] |  |
| COc1cccc(CN(C)C(=O)c2ccccc2Sc2ccccc2C#N)c1OC | inconclusive: 26.7 µM [inhibitor, partial curve] |  |
| O=C(CCN1CCN(c2ccccc2)CC1)N/N=C/c1ccc(O)c(O)c1O | active: 10.6 µM |  |
| COc1cc(NC(=O)Cc2ccccc2)c(C(=O)O)cc1OC | inconclusive: 37.7 µM [inhibitor, single point] |  |
| O=C(NNC1=C(C(=O)C(F)(F)F)CCC1)c1ccccc1O |  | inconclusive: -30.6% [inhibitor] |
| Cc1cccnc1Nc1nc(-c2ccc(O)cc2O)cs1 | active: 18.9 µM |  |
| COc1cc(/C=C(\C#N)C(=O)N2CCOCC2)cc(Br)c1O | active: 21.2 µM |  |
| COc1cc(NS(=O)(=O)c2ccc(N/C=C\C(=O)c3ccc(C)cc3)cc2)nc(OC)n1 | active: 3.36 µM |  |
| CC(=O)Nc1ccc(C(=O)CSc2nc3ccccc3n2CC(=O)N2CCCC2)cc1 | inconclusive: 29.9 µM [inhibitor, single point] |  |

Laid out differently: entries from further up.
COc1cccc(CN(C)C(=O)c2ccccc2Sc2ccccc2C#N)c1OC
  Potency: inconclusive: 26.7 µM [inhibitor, partial curve]
O=C(CCN1CCN(c2ccccc2)CC1)N/N=C/c1ccc(O)c(O)c1O
  Potency: active: 10.6 µM
